No constants are given. Whether binding was seen depends on the method and setting. Binding seen in cells or lysates may run through a third protein. Some results given as binding are weak or reduced against the parent protein; the word gives no strength. Tags and fused reporters may be left off the sequences shown.
Columns and labels:
[1] = biological target: T1, GST-AFF1 (AUXIN RESPONSE FACTOR F-BOX1, At3g49150) (Arabidopsis thaliana) (UniProt Q9M3B7); test: pull-down
T1 sequence: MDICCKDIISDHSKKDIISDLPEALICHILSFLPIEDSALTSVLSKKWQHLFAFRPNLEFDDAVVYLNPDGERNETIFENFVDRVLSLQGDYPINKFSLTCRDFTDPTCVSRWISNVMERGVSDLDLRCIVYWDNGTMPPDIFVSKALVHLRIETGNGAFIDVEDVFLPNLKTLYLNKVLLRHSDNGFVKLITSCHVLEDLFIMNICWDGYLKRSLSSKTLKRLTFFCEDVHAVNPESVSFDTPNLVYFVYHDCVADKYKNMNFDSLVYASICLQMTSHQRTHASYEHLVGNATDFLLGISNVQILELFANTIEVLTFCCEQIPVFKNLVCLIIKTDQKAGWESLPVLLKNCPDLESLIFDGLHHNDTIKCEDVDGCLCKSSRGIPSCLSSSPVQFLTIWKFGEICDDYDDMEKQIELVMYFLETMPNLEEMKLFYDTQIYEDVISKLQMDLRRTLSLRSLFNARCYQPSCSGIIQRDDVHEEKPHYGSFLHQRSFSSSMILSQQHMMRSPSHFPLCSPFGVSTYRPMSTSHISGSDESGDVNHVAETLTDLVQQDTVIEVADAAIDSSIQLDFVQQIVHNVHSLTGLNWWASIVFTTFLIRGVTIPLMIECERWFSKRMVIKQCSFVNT

Protein sequences, listed by entry. Tags and fused reporters are not part of them.
UniProt Q38825, whole entry: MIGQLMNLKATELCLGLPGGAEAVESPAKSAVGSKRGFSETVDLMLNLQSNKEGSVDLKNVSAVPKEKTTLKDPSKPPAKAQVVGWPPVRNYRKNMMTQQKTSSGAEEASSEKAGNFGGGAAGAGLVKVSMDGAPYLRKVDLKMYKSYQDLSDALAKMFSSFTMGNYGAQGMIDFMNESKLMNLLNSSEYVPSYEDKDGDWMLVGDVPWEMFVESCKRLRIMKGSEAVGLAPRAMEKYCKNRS

[2] = biological target: cEYFP-IAA7 (Arabidopsis thaliana) (UniProt Q38825); test: split reporter
[3] = biological target: T2, YFP-ARF19 (AUXIN RESPONSE FACTOR 19) (Arabidopsis thaliana) (UniProt Q8RYC8); test: co-IP
T2 sequence: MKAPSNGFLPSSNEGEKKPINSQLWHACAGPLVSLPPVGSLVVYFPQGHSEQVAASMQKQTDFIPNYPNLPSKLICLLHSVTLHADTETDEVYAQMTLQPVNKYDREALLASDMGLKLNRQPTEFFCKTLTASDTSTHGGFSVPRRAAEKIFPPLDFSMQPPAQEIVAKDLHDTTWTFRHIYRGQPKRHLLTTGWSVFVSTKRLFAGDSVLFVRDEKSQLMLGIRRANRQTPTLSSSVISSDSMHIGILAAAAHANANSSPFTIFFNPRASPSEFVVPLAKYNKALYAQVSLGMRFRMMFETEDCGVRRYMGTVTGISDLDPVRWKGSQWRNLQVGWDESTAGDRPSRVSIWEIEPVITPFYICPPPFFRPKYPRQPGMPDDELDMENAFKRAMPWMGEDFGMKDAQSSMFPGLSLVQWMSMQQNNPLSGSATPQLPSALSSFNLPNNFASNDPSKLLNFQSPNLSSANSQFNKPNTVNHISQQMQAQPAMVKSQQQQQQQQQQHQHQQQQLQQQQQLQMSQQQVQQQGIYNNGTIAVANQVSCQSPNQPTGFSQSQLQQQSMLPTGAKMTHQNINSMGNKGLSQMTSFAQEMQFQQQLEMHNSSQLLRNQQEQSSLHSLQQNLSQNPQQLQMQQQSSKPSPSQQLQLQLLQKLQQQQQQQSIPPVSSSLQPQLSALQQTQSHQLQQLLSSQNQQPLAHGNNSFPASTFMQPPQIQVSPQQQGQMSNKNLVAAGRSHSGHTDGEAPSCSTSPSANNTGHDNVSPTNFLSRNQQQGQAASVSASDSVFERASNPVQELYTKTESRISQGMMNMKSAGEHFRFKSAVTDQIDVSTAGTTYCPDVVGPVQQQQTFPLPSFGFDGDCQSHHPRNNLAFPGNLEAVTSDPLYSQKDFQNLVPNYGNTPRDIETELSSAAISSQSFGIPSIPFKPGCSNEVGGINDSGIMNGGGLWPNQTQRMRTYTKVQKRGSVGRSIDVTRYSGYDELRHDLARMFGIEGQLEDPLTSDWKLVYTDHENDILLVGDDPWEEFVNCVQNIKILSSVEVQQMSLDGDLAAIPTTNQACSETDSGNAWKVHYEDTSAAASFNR

[4] = biological target: T3, ARF7-HA (AUXIN RESPONSE FACTOR 7) (Arabidopsis thaliana) (UniProt P93022); test: co-IP
T3 sequence: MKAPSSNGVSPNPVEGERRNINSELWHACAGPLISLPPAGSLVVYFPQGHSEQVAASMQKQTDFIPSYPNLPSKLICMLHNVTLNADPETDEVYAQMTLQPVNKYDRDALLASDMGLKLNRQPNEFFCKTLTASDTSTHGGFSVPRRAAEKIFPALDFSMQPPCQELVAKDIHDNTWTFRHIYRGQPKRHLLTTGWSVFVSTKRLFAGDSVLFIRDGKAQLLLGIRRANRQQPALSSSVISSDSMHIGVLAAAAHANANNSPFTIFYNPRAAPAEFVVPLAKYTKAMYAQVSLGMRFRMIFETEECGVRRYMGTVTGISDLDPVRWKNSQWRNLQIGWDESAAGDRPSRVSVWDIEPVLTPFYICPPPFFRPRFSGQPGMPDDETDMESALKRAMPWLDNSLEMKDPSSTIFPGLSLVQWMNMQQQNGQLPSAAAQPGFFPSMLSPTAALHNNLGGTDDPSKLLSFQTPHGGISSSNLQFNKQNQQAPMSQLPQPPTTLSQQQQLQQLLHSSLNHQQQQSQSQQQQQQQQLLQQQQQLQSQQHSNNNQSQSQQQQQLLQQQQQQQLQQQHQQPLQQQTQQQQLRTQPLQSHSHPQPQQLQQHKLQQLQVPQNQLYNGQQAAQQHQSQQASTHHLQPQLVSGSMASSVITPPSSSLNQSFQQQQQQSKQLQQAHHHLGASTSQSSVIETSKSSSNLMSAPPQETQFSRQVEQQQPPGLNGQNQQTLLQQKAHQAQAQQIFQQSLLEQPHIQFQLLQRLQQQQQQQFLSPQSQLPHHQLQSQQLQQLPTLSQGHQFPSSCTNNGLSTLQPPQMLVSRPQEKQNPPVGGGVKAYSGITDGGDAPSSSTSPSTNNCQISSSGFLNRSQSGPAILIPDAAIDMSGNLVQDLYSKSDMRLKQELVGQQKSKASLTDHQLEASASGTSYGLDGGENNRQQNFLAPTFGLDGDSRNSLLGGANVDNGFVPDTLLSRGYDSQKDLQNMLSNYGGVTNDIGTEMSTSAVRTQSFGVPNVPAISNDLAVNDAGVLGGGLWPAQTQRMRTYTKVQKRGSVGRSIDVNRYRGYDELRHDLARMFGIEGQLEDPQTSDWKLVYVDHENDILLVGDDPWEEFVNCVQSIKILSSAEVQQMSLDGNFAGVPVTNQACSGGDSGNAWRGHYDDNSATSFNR

B1: YFP-ARF19 (AUXIN RESPONSE FACTOR 19) (protein, UniProt Q8RYC8 1-1086)
chain: T2 sequence
For B1, the binding [1] was “binds”.

B2: ARF19 BiFC fusion (nEYFP-ARF19 and cEYFP-ARF19) (protein, UniProt Q8RYC8 1-1086)
chain: T2 sequence
B2 was tested, and the binding [2] was “binds”.

B3: GST-AFF1 (AUXIN RESPONSE FACTOR F-BOX1, At3g49150) (protein, UniProt Q9M3B7 1-630)
chain: T1 sequence
With B3 the binding [3] was “binds” and the binding [4] was “binds”.

Reference: publication doi:10.1101/2021.04.25.441346 (bioRxiv, 2021)
